Results taken from PubChem BioAssay AID2685 (National Center for Advancing Translational Sciences (NCATS), 2010).
Some of the results follow. Further columns of the screen follow, without active or inactive calls. Compounds called inactive in the main read-out are mostly missing here. The note in brackets gives the kind of curve behind each potency; many fits are weak.

Experiment: qHTS Assay for Lipid Storage Modulators in Drosophila S3 Cells;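 on cell number change: cells counted by Cell Tracker Red CMTPX staining in the red channel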
Conditions: BODIPY lipid droplet fluorescence, 18-24 h; for cell number change: measured here: cell count max response, cells fed with added oleic acid
Summary of the method: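 Laser-scanning cytometry quantifies lipid droplet accumulation (500–530 nm total intensity; droplet/cell object ratio) in oleic acid-fed (400 uM added) Drosophila S3 cells treated with a concentration series. 20 uM Triacsin C defined 100% inhibition.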

[1] = measured here: cell number channel AC50, cells fed with added oleic acid
[2] = measured here: lipid fluorescence (Fed channel) AC50, cells fed with added oleic acid

Compound: Cc1nnc(NC(=O)CCS(=O)(=O)c2ccccc2)s1
- cell number change: -22.9%
- AC50 [1]: 0.164 µM [falling, full curve, poor fit]

Compound: C/C(=N/NC(=O)c1ccncc1)c1ccc(NC(=O)c2ccc(Cl)cc2Cl)cc1
- cell number change: 21.4%
- AC50 [1]: 7.31 µM [rising, partial curve, poor fit]
- AC50 [2]: 3.66 µM [rising, single point]

Compound: CC(C)=C1C(=O)NN(c2cccc(Cl)c2)C1=O
- cell number change: 9.52%
- AC50 [2]: 13 µM [falling, single point]

Compound: Oc1ccc(Nc2nc3ccccc3nc2Nc2ccc(O)cc2)cc1
- cell number change: -71.3%
- AC50 [1]: 29.1 µM [falling, partial curve, poor fit]

Compound: O=C(COc1coc(CN2CCc3ccccc32)cc1=O)Nc1ccccc1
- cell number change: 2.5%
- AC50 [1]: 0.0146 µM [falling, full curve, poor fit]

Compound: CC(C)Cc1nc2oc3c(Cl)ncnc3c2c2c1CCCC2
- cell number change: -18.2%

Compound: COC(=O)C1CCN(C(=O)NC(C)(C)C)CC1
- cell number change: -11.9%

Compound: COc1ccccc1OCCNC(=O)c1cccc(S(=O)(=O)NCc2ccccc2)c1
- cell number change: -14.4%
- AC50 [2]: 1.16 µM [rising, full curve]

Compound: C/C(=N\N(c1ccccc1)c1ccccc1)c1ccco1
- cell number change: 21.7%

Compound: Cc1ccc(C)c(S(=O)(=O)N2CCCC2CNC(=O)C(=O)NC2CC2)c1 (stereo not given)
- cell number change: 58.2%
- AC50 [1]: 18.4 µM [rising, partial curve]

Compound: COC(=O)[C@H](Cc1c[nH]c2ccccc12)NC(=O)NCc1ccccc1
- cell number change: 15.6%
- AC50 [2]: 6.51 µM [falling, single point]

Compound: Cc1[nH]c2ccc(C(=O)NCCCN3CCCCCC3)cc2c1C
- cell number change: -7.78%
- AC50 [2]: 5.17 µM [falling, full curve]

Compound: CC(C)C(=O)N1CCN(c2ccc(NC(=O)c3ccc4c(c3)OCCO4)cc2Cl)CC1
- cell number change: -13.6%

Compound: Cn1c(=O)c2c(nc(N3CCc4ccccc4C3)n2C)n(C)c1=O
- cell number change: -12.7%
- AC50 [2]: 0.00517 µM [falling, full curve, poor fit]

Compound: CC(C)Oc1ccc(C(CCN)C2CCCCC2)cc1 (stereo not given)
- cell number change: -68.7%
- AC50 [1]: 18.4 µM [falling, single point]

Compound: Cc1ccc(NC(=O)COC(=O)c2ccc3c(c2)OCO3)c(C)c1
- cell number change: 16%
- AC50 [2]: 0.103 µM [rising, full curve, poor fit]

Compound: COc1ccc(-n2nnc3c(=O)n(CC(=O)N4CCCc5ccccc54)cnc32)cc1
- AC50 [1]: 1.16 µM [rising, partial curve]
- AC50 [2]: 1.64 µM [rising, partial curve]

Compound: Cc1ccc(C(C)NC(=O)c2cc(C)oc2C)cc1 (stereo not given)
- cell number change: -12.4%
- AC50 [2]: 0.00517 µM [falling, full curve, poor fit]

Compound: Cc1ccc2c(c1)nnn2C1CCN(S(=O)(=O)c2cccc(S(=O)(=O)N(C)C)c2)CC1
- cell number change: -30.9%
- AC50 [1]: 0.000731 µM [falling, full curve, poor fit]

Compound: Cc1cc(=O)oc2c(CN3CCC(C)CC3)c(O)c(Cl)cc12
- AC50 [1]: 6.51 µM [falling, partial curve, poor fit]

Compound: O=C(O)COc1ccccc1/C=N/NC(=O)Cc1csc(Nc2cccc(C(F)(F)F)c2)n1
- cell number change: 84.3%
- AC50 [1]: 7.31 µM [rising, partial curve]
- AC50 [2]: 8.2 µM [rising, partial curve]

Compound: CCOC(=O)C1CCCN(c2c(NCCN(C)Cc3ccccc3)c(=O)c2=O)C1 (stereo not given)
- cell number change: 2.58%
- AC50 [2]: 0.0651 µM [falling, full curve]

Compound: O=C(Nc1ccccc1)Nc1cc(Cl)cc(Cl)c1
- cell number change: -67.7%
- AC50 [1]: 20.6 µM [falling, single point]
- AC50 [2]: 14.6 µM [falling, partial curve]

Compound: COc1cccc(/C=C/C(=O)OCCN2C(=O)c3ccccc3C2=O)c1
- cell number change: 57.4%
- AC50 [1]: 18.4 µM [rising, single point]
- AC50 [2]: 29.1 µM [rising, single point]

Compound: Cc1cc(C)n(CC(=O)NNC(=O)c2ccc(NC(=O)CC#N)cc2)n1
- cell number change: 15.7%

Compound: COc1ccc(N(C(C)C(=O)NN=C2CCCCCCC2)S(C)(=O)=O)cc1 (stereo not given)
- cell number change: 40.4%
- AC50 [1]: 29.1 µM [rising, single point]
- AC50 [2]: 25.9 µM [rising, single point]

Compound: CCn1c(SC)nnc1C1CCCN(CC(=O)Nc2ccccc2N2CCOCC2)C1 (stereo not given)
- cell number change: 6.52%

Compound: O=C(NCc1ccccc1)c1cccc(NS(=O)(=O)c2cccc3cccnc23)c1
- cell number change: 6.91%
- AC50 [2]: 1.3 µM [rising, full curve]

Compound: C=CCn1c(SCC(C)=O)nc2scc(-c3ccco3)c2c1=O
- cell number change: 55.2%
- AC50 [1]: 16.4 µM [rising, partial curve, poor fit]
- AC50 [2]: 6.51 µM [rising, single point]

Compound: Cc1cc(=O)oc2cc(OC(C)C(=O)N3CCCc4ccccc43)ccc12 (stereo not given)
- cell number change: 7.66%
- AC50 [2]: 0.092 µM [rising, full curve, poor fit]

Compound: Nn1cnnc1N/N=C/c1ccccc1C(F)(F)F
- cell number change: -33.4%
- AC50 [1]: 0.13 µM [falling, full curve, poor fit]
- AC50 [2]: 8.2 µM [falling, partial curve]

Compound: COc1cc(OC)cc(C(=O)Nc2cccc3ccccc23)c1
- cell number change: -21%

Compound: Cc1ccc(C(=O)NCC(c2ccco2)N2CCc3ccccc3C2)cc1C (stereo not given)
- cell number change: 73.7%
- AC50 [1]: 8.2 µM [rising, partial curve]

Compound: COc1ccc(CNC(=O)COC(=O)C(CCSC)NC(=O)c2ccco2)cc1OC (stereo not given)
- cell number change: 9.14%
- AC50 [2]: 6.51 µM [falling, single point]

Compound: Oc1cccc2ccc(/C=C/c3c(F)cccc3Cl)nc12
- cell number change: 35%
- AC50 [2]: 0.58 µM [rising, single point]

Compound: COc1cc(OC)c(NC(=O)CC(=O)Nc2cc(Cl)c(OC)cc2OC)cc1Cl
- cell number change: 17.9%
- AC50 [2]: 18.4 µM [falling, partial curve]

Compound: COc1ccccc1Cn1nc(C(=O)O)c2ccccc2c1=O
- cell number change: 32.5%
- AC50 [1]: 7.31 µM [rising, partial curve, poor fit]

Compound: CCOC(=O)c1[nH]c(C)c(CN(CCc2ccccc2)S(C)(=O)=O)c1C
- cell number change: -15.8%

Compound: O=C(/C=C/c1ccco1)c1ccc(NC(=O)C23CC4CC(CC(C4)C2)C3)cc1
- AC50 [2]: 18.4 µM [falling, partial curve]

Compound: COC(=O)C1(C)NC(=O)c2ccccc2N1 (stereo not given)
- cell number change: -48.6%
- AC50 [1]: 16.4 µM [falling, partial curve, poor fit]
- AC50 [2]: 0.164 µM [falling, full curve, poor fit]

Compound: Cc1ccc(S(=O)(=O)N2CCC(=O)N(C(COCc3cccc(C(F)(F)F)c3)C(C)C)CC2)cc1 (stereo not given)
- cell number change: 8.81%

Compound: CC(NC(=O)Nc1ccc(Cl)c(Cl)c1)C(c1ccccc1)N1CCOCC1 (stereo not given)
- cell number change: 5.1%
- AC50 [2]: 4.11 µM [rising, single point]

Compound: Cc1sc(NC(=O)Cn2[nH]c(=O)c3ccccc3c2=O)nc1-c1ccccc1
- cell number change: 8.68%
- AC50 [2]: 2.91 µM [rising, full curve]

Compound: C=CCOC(=O)/C(=C/c1cccnc1)NC(=O)c1ccccc1
- cell number change: 26.7%
- AC50 [1]: 1.16 µM [rising, full curve, poor fit]
- AC50 [2]: 1.46 µM [rising, full curve]

Compound: COc1ccc(CCNC(=O)CSc2nnc(Cc3csc(N)n3)n2C)cc1OC
- cell number change: 3.17%
- AC50 [2]: 29.1 µM [falling, single point]

Compound: CN(Cc1ccccc1)Cc1nc2c(c(=O)n(C)c(=O)n2C)n1CCCc1ccccc1
- cell number change: 3.94%
- AC50 [1]: 6.51 µM [falling, single point]

Compound: O=C(CCl)Nc1cccc(S(=O)(=O)NC2=NCCC2)c1
- AC50 [2]: 6.51 µM [falling, single point]

Compound: COc1cccc(C2CC(C(F)(F)F)n3nc(C(=O)Nc4c(C)n(C)n(-c5ccccc5)c4=O)cc3N2)c1 (stereo not given)
- cell number change: 12.6%

Compound: Cc1ccccc1NC(=O)Cc1nnc(SCC(=O)c2ccc(Br)cc2)n1C
- cell number change: -23.2%
- AC50 [2]: 2.06 µM [rising, partial curve]

Compound: N#CC1=C(N)NC(=S)C(C(N)=O)C1c1ccc(Cl)cc1Cl (stereo not given)
- cell number change: -27.5%

Compound: CC(=O)c1nc2ccccc2n1S(=O)(=O)c1ccc(C)cc1
- cell number change: 31.4%
- AC50 [2]: 29.1 µM [rising, single point]

Compound: CCOc1ccc(CN2C(=O)c3ccccc3C2C(=O)NCC2CCCO2)cc1 (stereo not given)
- cell number change: 2.05%
- AC50 [2]: 1.16 µM [falling, single point]

Compound: CCCNC(=O)C1CC2Cn3c(nc4ccccc43)C2N1C (stereo not given)
- cell number change: -5.15%
- AC50 [2]: 2.31 µM [rising, partial curve]

Compound: O=C(CSc1nncs1)NCc1ccc(F)cc1
- AC50 [2]: 0.116 µM [falling, full curve]

Compound: O=C(CCNC(=O)c1ccccc1)NCc1ccccc1F
- cell number change: -7.39%
- AC50 [2]: 2.91 µM [rising, single point]

Compound: Cc1ccc(Cl)cc1N1CCN(C(=O)c2cc3c(=O)[nH]c4ccccc4c3n2C)CC1
- cell number change: -0.355%

Compound: COc1ccc(C2=NOC(C(=O)Nc3cccnc3)C2)cc1 (stereo not given)
- AC50 [1]: 2.59 µM [rising, single point]
- AC50 [2]: 6.51 µM [rising, partial curve, poor fit]

Compound: Cc1cccc(NC(=O)COc2coc(CN3CCc4ccccc4C3)cc2=O)c1
- cell number change: -24.4%
- AC50 [1]: 4.11 µM [falling, full curve, poor fit]

Compound: COC(=O)CSc1nc2cc3c(cc2cc1C#N)OCO3
- cell number change: 32.1%
- AC50 [1]: 8.2 µM [rising, single point]

Compound: CN1c2ccccc2C(C)(C)C12CC(c1ccc(S(=O)(=O)N3CCCCC3)cc1)=NO2 (stereo not given)
- cell number change: -32.9%
- AC50 [1]: 6.51 µM [rising, single point]

Compound: CCn1c2ccccc2c2cc(CN3CCN(Cc4cc(OC)ccc4O)CC3)ccc21
- cell number change: 61.8%
- AC50 [1]: 6.51 µM [rising, full curve]
